log2 fold change data for 35 targets are collected here from the supplement of paper PMC10849652.

Sequences of proteins named here, by UniProt entry; tags and fusion partners are left off. A change or cut given only in a name is not applied to a line headed by its entry.
UniProt Q14139: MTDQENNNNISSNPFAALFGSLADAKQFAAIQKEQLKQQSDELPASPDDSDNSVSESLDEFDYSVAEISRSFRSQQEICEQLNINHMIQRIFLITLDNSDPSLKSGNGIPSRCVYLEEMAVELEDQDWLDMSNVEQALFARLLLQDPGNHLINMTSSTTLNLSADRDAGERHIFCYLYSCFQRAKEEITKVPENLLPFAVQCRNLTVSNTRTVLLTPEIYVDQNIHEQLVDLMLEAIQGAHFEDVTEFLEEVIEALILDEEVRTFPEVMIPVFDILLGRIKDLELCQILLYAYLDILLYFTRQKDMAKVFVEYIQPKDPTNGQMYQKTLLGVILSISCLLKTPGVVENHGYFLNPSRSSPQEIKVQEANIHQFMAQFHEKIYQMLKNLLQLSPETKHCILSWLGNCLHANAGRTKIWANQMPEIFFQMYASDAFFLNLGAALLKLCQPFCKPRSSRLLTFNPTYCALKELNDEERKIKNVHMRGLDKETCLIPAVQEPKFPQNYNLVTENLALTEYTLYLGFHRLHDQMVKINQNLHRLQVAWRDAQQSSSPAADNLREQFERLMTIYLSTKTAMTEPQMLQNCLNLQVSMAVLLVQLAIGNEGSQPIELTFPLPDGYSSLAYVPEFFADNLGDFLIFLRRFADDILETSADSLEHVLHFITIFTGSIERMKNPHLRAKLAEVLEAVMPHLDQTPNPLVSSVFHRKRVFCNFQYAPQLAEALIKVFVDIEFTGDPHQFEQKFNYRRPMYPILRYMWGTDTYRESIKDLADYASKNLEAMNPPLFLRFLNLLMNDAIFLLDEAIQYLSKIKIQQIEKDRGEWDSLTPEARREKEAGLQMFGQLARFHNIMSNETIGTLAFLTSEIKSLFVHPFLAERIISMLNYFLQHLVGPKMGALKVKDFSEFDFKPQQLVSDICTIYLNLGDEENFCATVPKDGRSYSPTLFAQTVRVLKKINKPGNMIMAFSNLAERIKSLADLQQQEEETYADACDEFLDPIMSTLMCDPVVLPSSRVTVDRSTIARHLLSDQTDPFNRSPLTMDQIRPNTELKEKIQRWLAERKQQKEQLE
UniProt Q9NUQ3: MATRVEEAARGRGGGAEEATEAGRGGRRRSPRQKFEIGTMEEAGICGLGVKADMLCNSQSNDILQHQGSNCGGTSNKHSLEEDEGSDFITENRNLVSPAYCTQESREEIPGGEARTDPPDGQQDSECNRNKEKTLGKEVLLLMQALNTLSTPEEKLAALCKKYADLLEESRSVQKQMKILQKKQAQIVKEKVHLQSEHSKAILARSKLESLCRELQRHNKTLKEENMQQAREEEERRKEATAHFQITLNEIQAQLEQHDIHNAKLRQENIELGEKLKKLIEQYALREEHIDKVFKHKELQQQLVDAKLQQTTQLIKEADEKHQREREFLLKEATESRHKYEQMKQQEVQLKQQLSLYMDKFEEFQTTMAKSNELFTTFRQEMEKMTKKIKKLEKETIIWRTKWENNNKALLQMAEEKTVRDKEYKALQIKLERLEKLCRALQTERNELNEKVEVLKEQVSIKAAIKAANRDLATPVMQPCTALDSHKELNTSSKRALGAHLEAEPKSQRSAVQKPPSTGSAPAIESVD
UniProt Q7Z6J8: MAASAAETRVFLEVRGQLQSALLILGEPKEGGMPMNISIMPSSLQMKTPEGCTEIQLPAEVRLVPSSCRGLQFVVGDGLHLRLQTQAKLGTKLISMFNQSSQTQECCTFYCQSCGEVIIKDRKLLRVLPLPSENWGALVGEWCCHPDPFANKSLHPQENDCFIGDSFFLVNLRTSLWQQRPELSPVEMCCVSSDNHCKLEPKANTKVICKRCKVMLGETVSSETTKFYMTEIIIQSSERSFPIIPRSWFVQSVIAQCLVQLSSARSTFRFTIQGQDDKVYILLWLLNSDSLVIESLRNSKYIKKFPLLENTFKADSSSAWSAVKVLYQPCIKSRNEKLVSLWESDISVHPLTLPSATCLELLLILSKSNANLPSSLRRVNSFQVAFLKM
UniProt Q6IBS0: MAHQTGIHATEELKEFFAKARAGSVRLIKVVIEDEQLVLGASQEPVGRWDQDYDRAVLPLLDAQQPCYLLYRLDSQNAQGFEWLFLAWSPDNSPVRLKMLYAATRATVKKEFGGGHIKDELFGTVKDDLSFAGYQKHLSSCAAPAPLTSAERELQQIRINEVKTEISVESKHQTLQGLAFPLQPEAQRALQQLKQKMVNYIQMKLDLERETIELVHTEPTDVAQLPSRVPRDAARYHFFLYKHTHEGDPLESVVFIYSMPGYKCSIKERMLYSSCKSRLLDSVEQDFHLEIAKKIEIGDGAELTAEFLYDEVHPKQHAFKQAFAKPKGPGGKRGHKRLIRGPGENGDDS
UniProt Q712K3: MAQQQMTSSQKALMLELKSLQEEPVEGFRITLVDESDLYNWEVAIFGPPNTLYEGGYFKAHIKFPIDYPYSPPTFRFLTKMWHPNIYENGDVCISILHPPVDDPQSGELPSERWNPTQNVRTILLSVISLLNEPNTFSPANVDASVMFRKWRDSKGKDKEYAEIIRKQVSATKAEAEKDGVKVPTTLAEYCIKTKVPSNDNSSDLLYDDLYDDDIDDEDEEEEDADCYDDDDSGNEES
UniProt Q05086: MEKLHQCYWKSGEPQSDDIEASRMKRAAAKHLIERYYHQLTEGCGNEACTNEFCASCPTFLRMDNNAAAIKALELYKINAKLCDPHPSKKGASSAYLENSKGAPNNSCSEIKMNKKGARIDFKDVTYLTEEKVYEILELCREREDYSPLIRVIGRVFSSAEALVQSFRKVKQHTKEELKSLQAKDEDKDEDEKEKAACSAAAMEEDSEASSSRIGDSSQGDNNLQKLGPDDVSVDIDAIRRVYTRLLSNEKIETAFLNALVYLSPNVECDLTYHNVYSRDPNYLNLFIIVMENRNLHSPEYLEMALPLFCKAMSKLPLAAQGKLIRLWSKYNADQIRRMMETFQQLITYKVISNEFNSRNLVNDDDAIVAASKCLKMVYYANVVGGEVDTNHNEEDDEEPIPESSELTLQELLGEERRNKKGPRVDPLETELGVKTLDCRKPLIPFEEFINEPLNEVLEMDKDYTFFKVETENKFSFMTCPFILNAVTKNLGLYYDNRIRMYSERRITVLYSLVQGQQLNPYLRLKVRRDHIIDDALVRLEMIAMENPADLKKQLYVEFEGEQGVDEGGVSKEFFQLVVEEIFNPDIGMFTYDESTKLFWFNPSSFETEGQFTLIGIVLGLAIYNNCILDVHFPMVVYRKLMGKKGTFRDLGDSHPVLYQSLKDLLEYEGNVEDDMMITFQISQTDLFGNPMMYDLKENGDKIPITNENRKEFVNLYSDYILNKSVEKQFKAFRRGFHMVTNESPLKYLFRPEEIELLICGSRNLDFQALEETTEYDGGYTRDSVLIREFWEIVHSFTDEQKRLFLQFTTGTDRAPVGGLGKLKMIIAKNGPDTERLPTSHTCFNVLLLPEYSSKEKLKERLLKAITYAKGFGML
UniProt Q96CW5, whole entry, looked up: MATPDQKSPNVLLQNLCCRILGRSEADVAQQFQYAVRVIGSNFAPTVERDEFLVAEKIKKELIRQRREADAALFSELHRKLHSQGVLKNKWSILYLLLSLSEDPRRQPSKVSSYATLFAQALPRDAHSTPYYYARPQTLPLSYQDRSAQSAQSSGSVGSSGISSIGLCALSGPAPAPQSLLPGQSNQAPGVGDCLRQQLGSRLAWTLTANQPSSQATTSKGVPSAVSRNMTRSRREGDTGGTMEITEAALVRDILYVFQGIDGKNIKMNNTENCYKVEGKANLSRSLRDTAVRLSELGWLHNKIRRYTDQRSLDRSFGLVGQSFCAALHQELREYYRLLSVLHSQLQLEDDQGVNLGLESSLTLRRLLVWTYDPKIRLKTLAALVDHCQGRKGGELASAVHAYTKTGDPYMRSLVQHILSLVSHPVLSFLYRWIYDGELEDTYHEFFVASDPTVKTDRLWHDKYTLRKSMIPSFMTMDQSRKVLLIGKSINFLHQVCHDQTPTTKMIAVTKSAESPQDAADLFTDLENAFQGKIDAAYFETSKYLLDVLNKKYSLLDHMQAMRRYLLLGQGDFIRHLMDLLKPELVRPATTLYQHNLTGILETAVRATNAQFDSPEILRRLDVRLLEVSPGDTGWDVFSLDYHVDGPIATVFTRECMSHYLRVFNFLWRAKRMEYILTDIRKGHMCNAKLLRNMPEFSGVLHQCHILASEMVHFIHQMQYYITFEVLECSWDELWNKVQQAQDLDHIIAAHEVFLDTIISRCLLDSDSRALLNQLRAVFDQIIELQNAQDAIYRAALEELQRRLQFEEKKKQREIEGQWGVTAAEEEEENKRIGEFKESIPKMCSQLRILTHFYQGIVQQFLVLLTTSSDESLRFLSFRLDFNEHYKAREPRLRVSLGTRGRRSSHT
UniProt P68363, whole entry, looked up: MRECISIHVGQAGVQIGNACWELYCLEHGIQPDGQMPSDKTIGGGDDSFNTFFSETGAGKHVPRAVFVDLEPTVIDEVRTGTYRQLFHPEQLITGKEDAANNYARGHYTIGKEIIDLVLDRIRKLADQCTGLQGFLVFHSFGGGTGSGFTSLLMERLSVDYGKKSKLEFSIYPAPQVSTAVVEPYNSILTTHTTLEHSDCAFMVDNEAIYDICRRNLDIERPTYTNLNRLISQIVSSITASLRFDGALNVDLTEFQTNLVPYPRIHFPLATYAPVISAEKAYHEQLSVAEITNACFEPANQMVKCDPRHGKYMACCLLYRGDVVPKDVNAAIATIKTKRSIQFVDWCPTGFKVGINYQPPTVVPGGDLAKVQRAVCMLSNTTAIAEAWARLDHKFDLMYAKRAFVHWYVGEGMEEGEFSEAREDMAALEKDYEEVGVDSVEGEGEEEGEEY
UniProt Q9BQE3, whole entry, looked up: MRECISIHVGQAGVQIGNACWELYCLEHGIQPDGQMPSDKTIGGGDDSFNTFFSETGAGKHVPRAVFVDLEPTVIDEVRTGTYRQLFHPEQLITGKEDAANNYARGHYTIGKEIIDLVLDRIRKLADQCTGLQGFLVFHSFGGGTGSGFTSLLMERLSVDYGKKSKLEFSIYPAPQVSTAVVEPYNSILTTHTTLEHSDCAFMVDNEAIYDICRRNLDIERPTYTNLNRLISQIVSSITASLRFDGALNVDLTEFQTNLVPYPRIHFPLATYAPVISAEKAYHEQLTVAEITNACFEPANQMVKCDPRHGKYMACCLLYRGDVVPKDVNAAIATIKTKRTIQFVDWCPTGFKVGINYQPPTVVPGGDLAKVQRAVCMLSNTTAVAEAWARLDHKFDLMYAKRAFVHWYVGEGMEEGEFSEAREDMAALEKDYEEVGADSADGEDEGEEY
UniProt P51668: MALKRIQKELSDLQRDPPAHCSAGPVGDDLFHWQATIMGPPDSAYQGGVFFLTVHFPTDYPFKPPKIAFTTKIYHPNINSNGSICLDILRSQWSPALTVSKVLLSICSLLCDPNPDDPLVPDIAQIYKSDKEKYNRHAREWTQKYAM
UniProt Q9NRR5, whole entry, looked up: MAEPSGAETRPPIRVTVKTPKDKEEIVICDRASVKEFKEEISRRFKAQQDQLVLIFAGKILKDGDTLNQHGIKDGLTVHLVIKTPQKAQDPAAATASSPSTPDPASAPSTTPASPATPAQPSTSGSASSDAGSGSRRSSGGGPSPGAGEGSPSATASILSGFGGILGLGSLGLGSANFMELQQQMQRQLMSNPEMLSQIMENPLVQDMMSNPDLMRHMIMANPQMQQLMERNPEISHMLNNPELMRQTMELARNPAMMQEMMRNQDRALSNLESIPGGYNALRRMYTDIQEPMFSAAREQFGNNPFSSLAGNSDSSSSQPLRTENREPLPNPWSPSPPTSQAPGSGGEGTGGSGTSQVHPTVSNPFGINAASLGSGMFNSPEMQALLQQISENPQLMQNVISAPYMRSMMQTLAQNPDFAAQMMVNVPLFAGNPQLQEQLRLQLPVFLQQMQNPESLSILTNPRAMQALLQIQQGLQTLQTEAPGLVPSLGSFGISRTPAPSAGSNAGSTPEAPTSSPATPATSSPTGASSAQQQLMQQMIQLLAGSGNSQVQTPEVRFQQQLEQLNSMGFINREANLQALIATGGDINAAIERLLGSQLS
UniProt Q9UJT1: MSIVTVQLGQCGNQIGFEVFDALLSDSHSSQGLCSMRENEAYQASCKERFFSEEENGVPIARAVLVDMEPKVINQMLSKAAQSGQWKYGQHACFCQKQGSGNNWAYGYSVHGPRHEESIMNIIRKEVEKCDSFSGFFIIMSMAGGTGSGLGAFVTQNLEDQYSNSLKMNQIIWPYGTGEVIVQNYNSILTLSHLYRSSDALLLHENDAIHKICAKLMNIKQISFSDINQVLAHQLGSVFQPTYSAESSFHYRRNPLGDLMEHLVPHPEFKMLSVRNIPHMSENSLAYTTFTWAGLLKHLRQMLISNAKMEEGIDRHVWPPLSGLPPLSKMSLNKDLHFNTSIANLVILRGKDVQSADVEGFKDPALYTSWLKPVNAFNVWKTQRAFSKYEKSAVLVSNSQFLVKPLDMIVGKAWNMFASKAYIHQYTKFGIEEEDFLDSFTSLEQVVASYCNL

The list shows a part of the results.

Compound in this assay: COc1cc2ncnc(Nc3ccc(F)c(Cl)c3)c2cc1OCCCN1CCOCC1 [gefitinib]
Description: log2 fold change, soluble protein after heating vs DMSO (PISA); higher = thermal stabilisation; K562 lysate, 10 uM; active = over 0.2 and 3.5 SD of the protein, either way, in both replicates (recomputed). Summed up:
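K562 pellets were dounce-homogenised in PBS pH 7.4 containing 1 mM MgCl2, and the crude extract, at 1 mg/mL protein, was exposed to 10 μM compound for 30 min. Aliquots were heated for 3 min across 48°C-58°C, pooled, brought to 0.5% NP-40 at 4°C and spun at 21,000xg for 90 min, with the supernatant taken as soluble protein. TMTpro 16plex LC-MS/MS with equalised channel sums quantified that protein. Values are log-two fold changes in thermal stability relative to solvent controls, taken from duplicates.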
Regarding UCK1 isoform 4 (UniProt Q9HA47), the log2 fold change was inactive: -0.02.

As for TUBA3C (UniProt P0DPH7), the log2 fold change was inactive: -0.005.

Consider UBE2Z (UniProt Q9H832), for which the log2 fold change is inactive: -0.021.

Turning to UBE2F isoform 2 (UniProt Q969M7), the log2 fold change was inactive: 0.061.

As for TUBAL3 (UniProt A6NHL2), the log2 fold change is inactive: -0.057.

UBXN4 (UniProt Q92575): the log2 fold change was inactive: -0.104.

For the target UBE4A isoform 2 (UniProt Q14139), the log2 fold change was inactive: -0.041.

For the target UBAP1 (UniProt Q9NZ09), the log2 fold change is inactive: 0.002.

Regarding UBE2G2 (UniProt P60604), the log2 fold change was inactive: -0.037.

On to UBR1 (UniProt Q8IWV7), for which the log2 fold change is inactive: 0.016.

With TXLNG (UniProt Q9NUQ3), the log2 fold change was inactive: -0.026.

With UBE3D (UniProt Q7Z6J8), the log2 fold change is inactive: 0.002.

On to TUT4 (UniProt Q5TAX3), for which the log2 fold change is inactive: -0.007.

With TWF2 (UniProt Q6IBS0), the log2 fold change is inactive: -0.015.

Take U2SURP (UniProt O15042): the log2 fold change is inactive: 0.018.

Take UBA2 (UniProt Q9UBT2): the log2 fold change was inactive: -0.023.

As for TXNDC5 (UniProt Q8NBS9), the log2 fold change is inactive: -0.002.

Regarding UBE2R2 (UniProt Q712K3), the log2 fold change was inactive: 0.028.

Take UBE2L3 isoform 3 (UniProt P68036): the log2 fold change is inactive: 0.017.

As for UBE3A (UniProt Q05086), the log2 fold change is inactive: -0.026.

In the case of UBAP2L isoform 5 (UniProt Q14157), the log2 fold change was inactive: -0.031.

Take TUBGCP3 (UniProt Q96CW5): the log2 fold change was inactive: 0.056.

Turning to TUBA1B (UniProt P68363), the log2 fold change was inactive: 0.013.

Consider TUBA1C (UniProt Q9BQE3), for which the log2 fold change was inactive: -0.042.

In the case of UBE2M (UniProt P61081), the log2 fold change was inactive: -0.046.

Take TYMS (UniProt P04818): the log2 fold change is inactive: -0.024.

As for UBE2D1 (UniProt P51668), the log2 fold change is inactive: 0.106.

For UBQLN4 (UniProt Q9NRR5), the log2 fold change was inactive: -0.017.

As to TWSG1 (UniProt Q9GZX9), the log2 fold change was inactive: -0.011.

For UBA1 (UniProt P22314), the log2 fold change is inactive: -0.01.

With UBR5 (UniProt O95071), the log2 fold change is inactive: 0.014.

Consider UAP1L1 (UniProt Q3KQV9), for which the log2 fold change is inactive: -0.035.

In the case of UBP1 (UniProt Q9NZI7), the log2 fold change was inactive: -0.073.

With UBE2NL (UniProt Q5JXB2), the log2 fold change was inactive: -0.016.

TUBD1 (UniProt Q9UJT1): the log2 fold change was inactive: 0.069.
